Assay results published in PMC6613617.
These are yes or no findings as the source states them, for the method shown. Binding seen in cells or lysates may run through a third protein. Some results given as binding are weak or reduced against the parent protein; the word gives no strength.

Chains of the proteins cited; added tags and fusions are not shown. Lines headed by an entry give the natural chain unless they say otherwise; changes in a name come on top.
UniProt P28340: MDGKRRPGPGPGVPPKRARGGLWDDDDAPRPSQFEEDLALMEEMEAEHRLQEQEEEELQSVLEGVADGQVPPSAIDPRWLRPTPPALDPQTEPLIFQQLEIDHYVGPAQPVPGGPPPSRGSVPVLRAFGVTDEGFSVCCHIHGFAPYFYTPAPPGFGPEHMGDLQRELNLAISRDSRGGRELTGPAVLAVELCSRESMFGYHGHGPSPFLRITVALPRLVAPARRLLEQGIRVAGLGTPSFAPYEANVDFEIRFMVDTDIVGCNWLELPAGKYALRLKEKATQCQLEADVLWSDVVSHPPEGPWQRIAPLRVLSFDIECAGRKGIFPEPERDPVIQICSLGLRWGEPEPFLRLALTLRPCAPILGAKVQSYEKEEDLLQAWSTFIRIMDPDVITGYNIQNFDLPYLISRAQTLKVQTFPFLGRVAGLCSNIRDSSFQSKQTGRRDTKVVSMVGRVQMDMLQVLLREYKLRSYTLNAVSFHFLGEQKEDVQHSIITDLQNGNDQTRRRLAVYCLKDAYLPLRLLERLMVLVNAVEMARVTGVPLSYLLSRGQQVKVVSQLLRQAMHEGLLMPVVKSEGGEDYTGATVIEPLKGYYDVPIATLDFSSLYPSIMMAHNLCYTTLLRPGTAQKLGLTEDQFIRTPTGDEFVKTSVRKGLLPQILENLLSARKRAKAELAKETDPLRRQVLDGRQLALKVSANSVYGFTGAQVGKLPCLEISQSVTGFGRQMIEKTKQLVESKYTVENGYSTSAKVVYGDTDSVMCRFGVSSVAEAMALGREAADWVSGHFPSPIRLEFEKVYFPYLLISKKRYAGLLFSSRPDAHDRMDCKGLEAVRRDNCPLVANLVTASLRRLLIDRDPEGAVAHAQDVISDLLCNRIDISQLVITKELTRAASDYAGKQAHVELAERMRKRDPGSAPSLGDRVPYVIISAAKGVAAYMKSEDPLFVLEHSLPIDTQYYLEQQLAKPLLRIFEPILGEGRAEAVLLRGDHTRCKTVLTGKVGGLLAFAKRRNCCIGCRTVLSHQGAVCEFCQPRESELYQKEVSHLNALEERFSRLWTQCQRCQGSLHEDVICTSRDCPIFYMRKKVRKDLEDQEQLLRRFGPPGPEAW
UniProt P49005: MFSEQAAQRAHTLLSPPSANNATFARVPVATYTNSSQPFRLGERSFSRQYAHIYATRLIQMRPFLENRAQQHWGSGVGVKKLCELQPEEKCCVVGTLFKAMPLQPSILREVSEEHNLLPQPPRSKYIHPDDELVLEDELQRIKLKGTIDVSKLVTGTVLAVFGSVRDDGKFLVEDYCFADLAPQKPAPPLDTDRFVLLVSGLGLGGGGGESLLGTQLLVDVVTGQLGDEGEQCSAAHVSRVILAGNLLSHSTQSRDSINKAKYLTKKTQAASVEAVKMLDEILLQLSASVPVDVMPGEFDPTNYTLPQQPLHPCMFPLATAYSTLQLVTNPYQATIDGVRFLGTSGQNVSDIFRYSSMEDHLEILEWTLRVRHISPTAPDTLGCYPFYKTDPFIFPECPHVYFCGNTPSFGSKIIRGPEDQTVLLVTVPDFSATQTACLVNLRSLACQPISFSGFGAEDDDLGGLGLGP
UniProt P11038: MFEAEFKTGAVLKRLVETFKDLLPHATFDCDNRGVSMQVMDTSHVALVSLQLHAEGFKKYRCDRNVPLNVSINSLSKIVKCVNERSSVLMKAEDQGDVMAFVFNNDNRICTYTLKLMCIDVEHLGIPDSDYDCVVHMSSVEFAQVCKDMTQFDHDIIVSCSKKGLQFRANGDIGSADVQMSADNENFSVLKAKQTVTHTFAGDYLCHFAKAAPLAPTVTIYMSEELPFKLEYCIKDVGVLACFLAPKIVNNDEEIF

How the values were obtained:
[1] = biological target: N-terminally Flag-tagged POLD1 H1066Y (human) (UniProt P28340); assay: pull-down; Flag-pull down (Flag-M2 agarose) from lysate of Sf9 cells co-expressing Flag-POLD1 variant, POLD2, POLD3, POLD4 and untagged PCNA; 50 mM Tris-HCl pH 8.0, 200 mM NaCl, 0.25% NP-40, 4°C; SDS-PAGE with protein stain
[2] = biological target: N-terminally Flag-tagged POLD1 H1066W (human) (UniProt P28340); assay: as above
[3] = biological target: N-terminally Flag-tagged POLD1 H1066Y (human) (UniProt P28340); assay: pull-down; Flag-pull down (Flag-M2 agarose) from lysate of Sf9 cells co-expressing Flag-POLD1 variant, POLD2, POLD3 and POLD4, without PCNA; 50 mM Tris-HCl pH 8.0, 200 mM NaCl, 0.25% NP-40, 4°C; SDS-PAGE with protein stain
[4] = biological target: N-terminally Flag-tagged POLD1 H1066W (human) (UniProt P28340); assay: as above
[5] = biological target: N-terminally Flag-tagged POLD1 H1066Y (human) (UniProt P28340); assay: pull-down; Flag-pull down (Flag-M2 agarose) from lysate of Sf9 cells co-expressing Flag-POLD1 variant, POLD2 and POLD3 (three-subunit Pol δ3, no POLD4), with or without PCNA; SDS-PAGE with protein stain
[6] = biological target: N-terminally Flag-tagged POLD1 H1066W (human) (UniProt P28340); assay: as above
[7] = biological target: N-terminally Flag-tagged POLD1 (catalytic subunit of human DNA polymerase delta), wild type (human) (UniProt P28340); assay: pull-down; Flag-pull down (Flag-M2 agarose) from lysate of Sf9 cells co-expressing Flag-POLD1 variant, POLD2, POLD3 and POLD4, without PCNA; 50 mM Tris-HCl pH 8.0, 200 mM NaCl, 0.25% NP-40, 4°C; SDS-PAGE with protein stain

Measured: binding

POLD2 (accessory subunit of human DNA polymerase delta), untagged (from UniProt P49005 1-469)
not listed: [7]
binds: all other assays above

baculovirus PCNA (from UniProt P11038 1-256)
binds: [7]
